{"source": "patent US8414883B2", "about": "“Parvovirus cancer therapy and combination with chemotherapy” (priority 2007, dated 2013)", "key": {"[1]": {"test_system": "human astrocytes", "test": "MTT survival of human astrocytes (control)", "assay_type": "cell-based", "conditions": "6 days; H-1PV 5 pfU/cell, 25 μM TMZ"}, "[2]": {"test_system": "RG2 cells", "test": "MTT survival of RG2 cells", "assay_type": "cell-based, rat", "conditions": "25 μM TMZ"}}, "note": "“Also recorded” adds a separate entry of the source. At least one compound was matched to its structure with a doubt left.", "data": [{"smiles": "Cn1nnc2c(C(N)=O)ncn2c1=O", "note": "[TMZ, Temozolomide]", "values": [{"measurement": "effect on the astrocytes (survival)", "setting": "[1]", "value": "none of these treatments shows any effect; also recorded: did not result in cell death"}, {"measurement": "sensitivity to TMZ treatment", "setting": "[2]", "value": "not sensitive; also recorded: did not result in cell death"}]}]}
